42 sequences from PMC7819943, “Rice protein-binding microarrays: a tool to detect cis-acting elements near promoter regions in rice” can be followed below.

Protein sequences, listed by entry. Tags and fused reporters are not part of them.
UniProt Q0JBA9, entry or part of it: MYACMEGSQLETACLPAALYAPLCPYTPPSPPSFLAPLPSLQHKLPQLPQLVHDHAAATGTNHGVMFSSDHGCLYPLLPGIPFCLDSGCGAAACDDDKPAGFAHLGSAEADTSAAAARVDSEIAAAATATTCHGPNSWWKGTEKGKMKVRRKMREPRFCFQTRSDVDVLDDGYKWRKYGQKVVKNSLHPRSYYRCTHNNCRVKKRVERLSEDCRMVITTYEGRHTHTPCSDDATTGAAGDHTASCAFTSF

The list shows a part of the results.

The test addresses OsWRKY34 (Oryza sativa, UniProt Q0JBA9 1-250). In words: protein-binding microarray (RPBM); PBS, 2% BSA, 51.3 ng/ul salmon testes DNA, 50 uM zinc acetate, 200 nM TF, 25 C, 1 h; high values mean tight binding. The note with it: protein: recombinant; tags: N-terminal polyhistidine and DsRed monomer fusion (pET32a); label: CyDye5-dUTP incorporated in the synthesized complementary strand; 3' TTTTT single-stranded linker to array surface; dsDNA, one strand shown. A digest of the protocol:
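The binding signal is fluorescence intensity per feature, in arbitrary units, read on an Axon 4000B scanner. Polyhistidine- and DsRed-tagged transcription factors (N-terminal fusions) from E. coli BL21-CodonPlus were purified on Ni–NTA and applied at 200 nM for 1 h at 25 °C to a double-stranded, BSA-blocked custom Agilent array in buffer with 50 µM zinc acetate.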
For the sequence “ATTTGCTATTTTAGATGTTGTTTTTAGATAGATGCTATTTCGGAGTCACCTAGTGCAG”, the binding signal was 10000 fluorescence intensity (a.u.).

For “TCTTCATGCAGCTAGACAAACCTTATTGCATCTTTCTGTTCGGAGTCACCTAGTGCAG”, the binding signal was 10600 fluorescence intensity (a.u.).

Consider “TTGGCCAACTCGCTTTTGTCTTCTTTGGTGGTTGCCCTCTCGGAGTCACCTAGTGCAG”, for which the binding signal was 9730 fluorescence intensity (a.u.).

Turning to “TTTTGTGTTTTTTCCTGTGGTCCAATCAAACGCGTTTTTTCGGAGTCACCTAGTGCAG”, the binding signal is 9400 fluorescence intensity (a.u.).

For “TGCCTGCTAGCCCGCTTGTGTTAACTGTCCTTTCTGTATCCGGAGTCACCTAGTGCAG”, the binding signal is 8420 fluorescence intensity (a.u.).

Turning to “ATCCTGGAGGCCCTCGTCGGGGTGGGAGGCGACCGTGGGACGGAGTCACCTAGTGCAG”, the binding signal was 12600 fluorescence intensity (a.u.).

Regarding “AATTCGTATCCCATTTTCTCTCCTCTCTTCTCTCATGTTCCGGAGTCACCTAGTGCAG”, the binding signal is 8280 fluorescence intensity (a.u.).

For “CCCCGGGCGCGCCGCCGCCGTCCCCGTCCCTGGCCGCGCCCGGAGTCACCTAGTGCAG”, the binding signal was 8930 fluorescence intensity (a.u.).

On to “CACTCCTCAGCTCGCTTCTTCGTCAATCCGCCTTGCATTTCGGAGTCACCTAGTGCAG”, for which the binding signal is 13800 fluorescence intensity (a.u.).

Consider “CACTACTGTCTATGTCTCAATTCATACTATTATATTCTATCGGAGTCACCTAGTGCAG”, for which the binding signal is 9070 fluorescence intensity (a.u.).

With “TGTCCATTCTTCTTGTTGTTGTTCTTGCTCGGGTGGTTAGCGGAGTCACCTAGTGCAG”, the binding signal is 8280 fluorescence intensity (a.u.).

On to “CCCTTGCCACCACACTAGCAAAATGCATCTCTCAACAACACGGAGTCACCTAGTGCAG”, for which the binding signal is 9100 fluorescence intensity (a.u.).

As to “AAGCATATGCTCGATCGCCGATCGGTCTTTTATCTTTTCTCGGAGTCACCTAGTGCAG”, the binding signal was 8970 fluorescence intensity (a.u.).

For “AGAAGTCGAGAGGGTTTTCGTGGTGGTGGTGGTGGTAGGGCGGAGTCACCTAGTGCAG”, the binding signal is 10600 fluorescence intensity (a.u.).

With “TGTATTTCTATATGGACTCTGCCTTTTATTTTTCTCCGATCGGAGTCACCTAGTGCAG”, the binding signal was 8150 fluorescence intensity (a.u.).

As to “CACGTTCACTTCTACCTACTTTCTTAATAACCGTGTCCAACGGAGTCACCTAGTGCAG”, the binding signal was 9330 fluorescence intensity (a.u.).

For the sequence “TCACATCCATGGGCCCACTTGTCATCCTCACGCTCTATGACGGAGTCACCTAGTGCAG”, the binding signal was 9410 fluorescence intensity (a.u.).

As to “GGTCGGGGTGATACTATCTCTTTTGTCATTGTGGGTGGTCCGGAGTCACCTAGTGCAG”, the binding signal is 13500 fluorescence intensity (a.u.).

Regarding “GCCAACAGTTGTCGGGACTGTCACTCCACCCGTCACGCTCCGGAGTCACCTAGTGCAG”, the binding signal was 9550 fluorescence intensity (a.u.).

Consider “AACTCAGCGAAGGCCTGGAACATCTCTCTCGCTGGAATATCGGAGTCACCTAGTGCAG”, for which the binding signal was 8370 fluorescence intensity (a.u.).

Turning to “TAGGTCCATAACTCCCAAACCCCTAGCATCAACATTTCACCGGAGTCACCTAGTGCAG”, the binding signal is 8410 fluorescence intensity (a.u.).

Take “ACATAAATTTTGAACTGGCTACACCCTACCAGTTCATTACCGGAGTCACCTAGTGCAG”: the binding signal is 9470 fluorescence intensity (a.u.).

As for “TTGAGTGATTTTTTTTCAACATTTGTCTTATGTATATGCTCGGAGTCACCTAGTGCAG”, the binding signal is 8470 fluorescence intensity (a.u.).

For “CTCGTGCGCTACCCCTTTTTATTATTGCCGAAATCATGTTCGGAGTCACCTAGTGCAG”, the binding signal was 9780 fluorescence intensity (a.u.).

With “GACTAGGGAATTTGGAGATGCATTGAGACGTCTATTTTTCCGGAGTCACCTAGTGCAG”, the binding signal was 9060 fluorescence intensity (a.u.).

For the sequence “CTCTTGGAAAATTTTCTTTGAGTCTATCTCTCTCATCCGACGGAGTCACCTAGTGCAG”, the binding signal is 8980 fluorescence intensity (a.u.).

With “ATGTACTAGTCATTGTTACTTAATGTTCATATAGTTTTATCGGAGTCACCTAGTGCAG”, the binding signal was 8910 fluorescence intensity (a.u.).

“GATGTGACTGTGGTGTTGCGTATGTAGTGATGTATGTCTGCGGAGTCACCTAGTGCAG”: the binding signal was 9270 fluorescence intensity (a.u.).

For the sequence “AATCGTATTCAGAATTGGTTTTCTTTTATCTGCTCTTTTCCGGAGTCACCTAGTGCAG”, the binding signal was 10600 fluorescence intensity (a.u.).

In the case of “CAGTGGATTCTCGGAAGATCCTCCCATCTCACTCTTGCCCCGGAGTCACCTAGTGCAG”, the binding signal was 8590 fluorescence intensity (a.u.).

Regarding “TGGTCTTCATCCTACGTGGCGTTTATGTGGCACTACAATTCGGAGTCACCTAGTGCAG”, the binding signal is 8200 fluorescence intensity (a.u.).

As to “GGACCTTCGGTGTACTTTTTCCTATTCCTTGTCACCACTGCGGAGTCACCTAGTGCAG”, the binding signal was 8260 fluorescence intensity (a.u.).

On to “TATCATCTTTGCCTCGCGCCACGCTCACTTCACTTGCAGCCGGAGTCACCTAGTGCAG”, for which the binding signal was 13700 fluorescence intensity (a.u.).

In the case of “ATTACATCTATCATAAATTTTTTACTATACTTGTCATTTCCGGAGTCACCTAGTGCAG”, the binding signal was 10500 fluorescence intensity (a.u.).

With “AATAAACAAAGTCTGCTCTTCACTTTCCGGGCTTGAAATTCGGAGTCACCTAGTGCAG”, the binding signal was 8140 fluorescence intensity (a.u.).

Consider “CTACCAACTCCGTGAGTTATTTGTAACATTGCTTCTTTTCCGGAGTCACCTAGTGCAG”, for which the binding signal is 9060 fluorescence intensity (a.u.).

Turning to “CCTCGCGCCACCCGCGCCGATCCGTTCGCCTCCGCCGCCGCGGAGTCACCTAGTGCAG”, the binding signal is 8530 fluorescence intensity (a.u.).

On to “GCCCGCACCACCGCACGTGCACCCCTCAAACTCGCCATCGCGGAGTCACCTAGTGCAG”, for which the binding signal is 9740 fluorescence intensity (a.u.).

Take “GATATGTGTGGGTGGGTTCCTGGATCCGGCGCAGAGGTGTCGGAGTCACCTAGTGCAG”: the binding signal is 11200 fluorescence intensity (a.u.).

For the sequence “CCACCACCCCGGCCATTCCATTCCATTCCATTTCTTTTCTCGGAGTCACCTAGTGCAG”, the binding signal was 15300 fluorescence intensity (a.u.).

Take “GCTTTCTTTTTTCTCTATGTTGATCAAATTTTAGTGTGGACGGAGTCACCTAGTGCAG”: the binding signal was 9710 fluorescence intensity (a.u.).

Turning to “TCACGCGCATTCCTCCTCTACTATTCTCAATGTCTCTCTCCGGAGTCACCTAGTGCAG”, the binding signal is 9910 fluorescence intensity (a.u.).
